Source: paper PMC9176245
The exact form of at least one protein or probe is not confirmed.

Test system: Cbf5 + Nop10 + Gar1 + Nhp2
Experiment: filter binding
Conditions: RNP with snR30 (N1), 20 mM HEPES-KOH pH 7.4, 150 mM NaCl, 1.5 mM MgCl2, 10% glycerol, 30°C, 10 min, nitrocellulose filtration, recombinant protein, label: 3H-UTP, probe letters rebuilt from the primers and the genome

Row | Sequence | Kd (1 µM E. coli tRNAPhe) [nM] | Kd (amplitude 1280%) [nM] | Kd (amplitude 410%) [nM]
1 | GGGUUAAUAGGGACGGUCGGGGGCAUCAGUAUUCAAUUGUCAGAGGUGAAAUUCUUGGAUUUAUUGAAGACUAACUACUGCGAAAGCAUUUGCCAAGGACGUUUUC [H22/23] | 459 | 276 | –
2 | GGGCCGACUAGGGAUCGGGUGGUGUUUUUUUAAUGACCCACUCGGCACCUUACGAGAAAUCAAAGUCUUUGGGU [H25/26] | – | – | 225
